Patent US20230027929A1, “MrgprX2 Antagonists and Uses Thereof” (Dermira, Inc., priority 2019, published 2023)

Chains of the proteins cited; added tags and fusions are not shown.
UniProt Q96LB1, whole entry: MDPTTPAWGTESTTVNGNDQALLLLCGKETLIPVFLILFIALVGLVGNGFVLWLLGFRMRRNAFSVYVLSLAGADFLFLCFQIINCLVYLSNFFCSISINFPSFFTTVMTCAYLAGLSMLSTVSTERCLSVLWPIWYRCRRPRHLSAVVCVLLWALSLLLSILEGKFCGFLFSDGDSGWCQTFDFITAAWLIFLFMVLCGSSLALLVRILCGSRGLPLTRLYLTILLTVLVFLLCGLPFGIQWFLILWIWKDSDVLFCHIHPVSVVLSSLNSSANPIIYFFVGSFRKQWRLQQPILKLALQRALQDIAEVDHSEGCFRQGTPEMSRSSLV

What follows are compounds tested against hMrgpMRGPRX2 (Homo sapiens, UniProt Q96LB1) (assay: FLIPR intracellular calcium mobilization, antagonist activity in recombinant hMrgpMRGPRX2 expressing cells).
Text: Potent and selective hMrgpMRGPRX2 compounds have been generated from compounds identified during a high throughput screening (HTS) campaign and followed up with cycles of structure activity based medicinal chemistry efforts. These compounds were characterized in recombinant hMrgpMRGPRX2 expressing cells for their antagonist activity and the potency was confirmed in the human mast cell line LAD-2, where the target is endogenously expressed. The assays used to determine potencies are functional read-out looking at intracellular calcium mobilization using the FLIPR™ technology. In these FLIPR assays, we test the identified compounds using recombinant cellular systems expressing mouse MrgprB2, mouse MrgprA1, gerbil MrgpMRGPRX2 orthologue, Chinese hamster MrgpMRGPRX2 orthologue and cynomolgus monkey MrgpMRGPRX2 orthologue, respectively for orthologue activity.

Row | Structure (SMILES) | Human MrgprX2 Antagonist pIC50
1 | CC1(C)C(C(=O)Nc2ccc(-n3cc(O)cn3)cn2)C1(C)C | 6.04
2 | CCN(C[C@@H](O)C(F)(F)F)C(=O)Nc1cnc(Cc2cc(F)cc(F)c2)cn1 | 6.17
3 | O=C(Nc1ccc(Oc2ccc(F)c(F)c2)cn1)C1CC1F (single isomer, unassigned) [E064] | 6.64
4 | O=C(Nc1ccc(Oc2ccc(F)c(F)c2)cn1)C1CC1F (single isomer, unassigned) [E067] | 6.1

The structures given here were assigned with low confidence; some may be wrong.
